In patent publication US20060008801A1 (EFFECTOR CELL INSTITUTE, published 2006):
These are yes or no findings as the source states them, for the method shown. Some binding calls cover weakened binding; strength is not graded here. Sequences can lack the tags named with a protein.

Chains of the proteins cited; added tags and fusions are not shown.
UniProt P51681: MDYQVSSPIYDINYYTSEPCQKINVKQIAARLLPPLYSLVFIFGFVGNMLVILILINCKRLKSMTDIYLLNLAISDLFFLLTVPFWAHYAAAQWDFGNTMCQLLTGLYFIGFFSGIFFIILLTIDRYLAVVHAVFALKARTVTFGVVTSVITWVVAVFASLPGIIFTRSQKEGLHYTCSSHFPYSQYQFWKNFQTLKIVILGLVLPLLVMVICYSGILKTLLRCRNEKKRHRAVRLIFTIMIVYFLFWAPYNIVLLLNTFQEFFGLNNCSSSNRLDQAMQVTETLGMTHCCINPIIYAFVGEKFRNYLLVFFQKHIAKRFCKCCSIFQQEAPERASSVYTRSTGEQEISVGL

Molecular target: CCR5 expressed in pEGFP-FROUNT transformed HEK293 cells (UniProt P51681)
Assay: fluorescence microscopy of HEK cells (colocalization)

binding: binds
B1: green fluorescent protein-fused FROUNT protein 1 (pEGFP-FROUNT), expressed in HEK293 cells (protein, not shown: large carriers)
chain: MYFDWGPGEMLVCETSFNKKEKSEMVPSCPFIYIIRKDVDVYSQILRKLFNESHGIFLGLQRIDEELTGKSRKSQLVRVSKNYRSVIRACMEEMHQVAIAAKDPANGRQFSSQVSILSAMELIWNLCEILFIEVAPAGPLLLHLLDWVRLHVCEVDSLSADVLGSENPSKHDSFWNLVTILVLQGRLDEARQMLSKEADASPASAGICRIMGDLMRTMPILSPGNTQTLTELELKWQHWHEECERYLQDSTFATSPHLESLLKIMLGDEAALLEQKELLSNWYHFLVTRLLYSNPTVKPIDLHYYAQSSLDLFLGGESSPEPLDNILLAAFEFDIHQVIKECSIALSNWWFVAHLTDLLDHCKLLQSHNLYFGSNMREFLLLEYASGLFAHPSLWQLGVDYFDYCPELGRVSLELHIERIPLNTEQKALKVLRICEQRQMTEQVRSICKILAMKAVRNNRLGSALSWSIRAKDAAFATLVSDRFLRDYCERGCFSDLDLIDNLGPAMMLSDRLTFLGKYREFHRMYGEKRFADAASLLLSLMTSRIAPRSFWMTLLTDALPLLEQKQVIFSAEQTYELMRCLEDLTSRRPVHGESDTEQLQDDDIETTKVEMLRLSLARNLARAIIREGSLEGS
